From article PMC13354802

The chains behind the UniProt entries cited, without tags or fusion partners.
UniProt O00429: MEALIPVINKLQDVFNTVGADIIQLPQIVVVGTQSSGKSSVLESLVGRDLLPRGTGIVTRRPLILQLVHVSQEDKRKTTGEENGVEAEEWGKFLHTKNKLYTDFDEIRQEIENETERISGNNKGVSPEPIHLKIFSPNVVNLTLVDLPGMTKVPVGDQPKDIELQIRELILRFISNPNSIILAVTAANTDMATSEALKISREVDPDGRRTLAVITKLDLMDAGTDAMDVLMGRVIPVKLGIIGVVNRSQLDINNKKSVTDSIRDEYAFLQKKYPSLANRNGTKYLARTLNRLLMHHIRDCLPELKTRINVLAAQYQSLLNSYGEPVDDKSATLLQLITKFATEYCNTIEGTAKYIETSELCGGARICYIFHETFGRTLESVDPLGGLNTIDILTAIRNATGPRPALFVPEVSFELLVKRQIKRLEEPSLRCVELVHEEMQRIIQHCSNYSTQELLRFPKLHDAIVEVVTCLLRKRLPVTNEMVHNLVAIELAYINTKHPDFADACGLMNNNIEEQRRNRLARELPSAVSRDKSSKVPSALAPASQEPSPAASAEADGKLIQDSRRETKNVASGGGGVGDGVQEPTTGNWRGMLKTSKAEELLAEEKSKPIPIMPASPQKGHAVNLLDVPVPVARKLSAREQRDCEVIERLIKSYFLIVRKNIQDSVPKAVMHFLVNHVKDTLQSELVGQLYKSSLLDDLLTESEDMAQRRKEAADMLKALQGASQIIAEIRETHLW

Target: T1, SidC, purified L. pneumophila effector (negative control) (L. pneumophila) (UniProt Q6RCR4)
T1 sequence: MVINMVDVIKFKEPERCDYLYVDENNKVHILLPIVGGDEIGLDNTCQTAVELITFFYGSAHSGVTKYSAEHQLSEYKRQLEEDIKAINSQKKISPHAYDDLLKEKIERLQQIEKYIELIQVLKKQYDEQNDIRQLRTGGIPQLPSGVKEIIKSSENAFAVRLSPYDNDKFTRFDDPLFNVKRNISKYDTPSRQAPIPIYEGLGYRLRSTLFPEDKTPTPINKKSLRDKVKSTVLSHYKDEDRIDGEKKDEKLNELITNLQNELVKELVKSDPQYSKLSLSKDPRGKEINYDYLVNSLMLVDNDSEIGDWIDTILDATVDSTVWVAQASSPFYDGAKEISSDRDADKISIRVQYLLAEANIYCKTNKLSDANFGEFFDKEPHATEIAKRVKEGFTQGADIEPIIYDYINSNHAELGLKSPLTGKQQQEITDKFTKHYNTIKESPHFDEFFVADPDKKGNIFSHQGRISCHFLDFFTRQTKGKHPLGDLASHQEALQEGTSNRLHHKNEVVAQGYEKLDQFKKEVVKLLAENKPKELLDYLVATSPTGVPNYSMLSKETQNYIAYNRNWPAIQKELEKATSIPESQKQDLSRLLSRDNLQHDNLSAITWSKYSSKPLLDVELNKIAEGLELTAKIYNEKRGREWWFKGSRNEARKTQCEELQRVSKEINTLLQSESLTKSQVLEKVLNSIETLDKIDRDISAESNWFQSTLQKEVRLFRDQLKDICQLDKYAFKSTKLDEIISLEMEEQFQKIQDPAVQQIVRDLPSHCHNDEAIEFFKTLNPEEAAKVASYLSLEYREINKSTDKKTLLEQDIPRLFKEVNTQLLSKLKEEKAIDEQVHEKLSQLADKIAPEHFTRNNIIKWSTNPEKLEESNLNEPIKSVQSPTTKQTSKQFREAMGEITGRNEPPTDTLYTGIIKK
Experiment: affinity purification with mass spectrometry; only the target purified

For “dynamin-related protein 1 (Drp1), endogenous in HeLa cell lysate (from UniProt O00429 1-736) (enzyme)”, the binding was “no binding”.

Results are given in words; binding and its absence hold for the method and conditions named. In cells and extracts the contact can be indirect. These calls come from enrichment with a bait or labelling near it, and not all partners need be listed. A no says only that the protein was not detected with the bait.
